# Melanoma cell counts after drug treatment

Drug key:
GW9662 (2 µM): O=C(Nc1ccccc1)c1cc([N+](=O)[O-])ccc1Cl
GW441756 (0.4 µM): Cn1cc(/C=C2\C(=O)Nc3cccnc32)c2ccccc21
TCS401 (1.67 µM): O=C(O)C(=O)Nc1sc2c(c1C(=O)O)CCNC2
vorinostat (0.08 µM): O=C(CCCCCCC(=O)Nc1ccccc1)NO
T0901317 (1.4 µM): O=S(=O)(c1ccccc1)N(CC(F)(F)F)c1ccc(C(O)(C(F)(F)F)C(F)(F)F)cc1
stibogluconate (2 µM): O=C(O)[C@@H]1[O][Sb](=[O])([O][Sb]2(=[O])[O][C@H]([C@H](O)CO)[C@H](O)[C@H](C(=O)O)[O]2)[O][C@H]([C@H](O)CO)[C@@H]1O (stereo partly shown)
GSK0660 (1 µM): COC(=O)c1sccc1S(=O)(=O)Nc1ccc(Nc2ccccc2)cc1OC
FH535 (1 µM): Cc1cc([N+](=O)[O-])ccc1NS(=O)(=O)c1cc(Cl)ccc1Cl
dasatinib (0.004 µM): Cc1nc(Nc2ncc(C(=O)Nc3c(C)cccc3Cl)s2)cc(N2CCN(CCO)CC2)n1
YM155 (0.0004 µM): COCC[n+]1c2c(n(Cc3cnccn3)c1C)C(=O)c1ccccc1C2=O
selumetinib (0.015 µM): Cn1cnc2c(F)c(Nc3ccc(Br)cc3Cl)c(C(=O)NOCCO)cc21
NVP-TAE684 (0.08 µM): COc1cc(N2CCC(N3CCN(C)CC3)CC2)ccc1Nc1ncc(Cl)c(Nc2ccccc2S(=O)(=O)C(C)C)n1
FK866 (0.01 µM): O=C(/C=C/c1cccnc1)NCCCCC1CCN(C(=O)c2ccccc2)CC1
U73122 (0.4 µM): COc1ccc2c(c1)CCC1C2CCC2(C)C(NCCCCCCN3C(=O)C=CC3=O)CCC12 (stereo not shown)
CHIR-265 (0.08 µM): Cn1c(Nc2ccc(C(F)(F)F)cc2)nc2cc(Oc3ccnc(-c4ncc(C(F)(F)F)[nH]4)c3)ccc21
lenalidomide (1 µM): Nc1cccc2c1CN(C1CCC(=O)NC1=O)C2=O (stereo not shown)

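Human melanoma cell lines in 1,536-well plates were treated with two drugs together for 72 h, then fixed, stained and imaged. Each value is the count of nuclei relative to DMSO-treated wells, in %, so that 100 equals the control. Every drug was used at one fixed concentration, the lower of two screened (a fifth of the higher). No replicate spread is given; individual values may be noisy.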
This is part of the screen, not chosen by result.
An entry leaves out what has no value listed here.

{"combination": "GW441756 and YM155", "LOX IMVI": 82.5, "G-361": 89.1, "LB2518-MEL": 106}
{"combination": "CHIR-265 and GW9662", "LOX IMVI": 55.7, "G-361": 65.5, "LB2518-MEL": 62.4}
{"combination": "FK866 and CHIR-265", "LOX IMVI": 62.9, "G-361": 11.8, "LB2518-MEL": 55.6}
{"combination": "U73122 and YM155", "LOX IMVI": 72.2, "G-361": 95.4, "LB2518-MEL": 95.4}
{"combination": "NVP-TAE684 and lenalidomide", "LOX IMVI": 89.2, "G-361": 111, "LB2518-MEL": 113}
{"combination": "FH535 and FK866", "LOX IMVI": 102, "G-361": 9.4, "LB2518-MEL": 102}
{"combination": "TCS401 and lenalidomide", "LOX IMVI": 103, "G-361": 108, "LB2518-MEL": 108}
{"combination": "CHIR-265 and U73122", "LOX IMVI": 73.8, "G-361": 54.7, "LB2518-MEL": 43.5}
{"combination": "lenalidomide and FK866", "LOX IMVI": 71.8, "G-361": 7.0, "LB2518-MEL": 110}
{"combination": "vorinostat and U73122", "LOX IMVI": 80.2, "G-361": 91.4, "LB2518-MEL": 103}
{"combination": "vorinostat and GSK0660", "LOX IMVI": 115, "G-361": 85.2, "LB2518-MEL": 103}
{"combination": "CHIR-265 and GW441756", "LOX IMVI": 58.0, "G-361": 67.3, "LB2518-MEL": 58.2}
{"combination": "dasatinib and stibogluconate", "LOX IMVI": 37.0, "G-361": 86.6, "LB2518-MEL": 86.5}
{"combination": "vorinostat and T0901317", "LOX IMVI": 92.4, "G-361": 87.3, "LB2518-MEL": 104}
{"combination": "FK866 and selumetinib", "LOX IMVI": 69.0, "G-361": 9.4, "LB2518-MEL": 76.3}
{"combination": "GSK0660 and dasatinib", "LOX IMVI": 62.0, "G-361": 86.9, "LB2518-MEL": 98.9}
{"combination": "GSK0660 and YM155", "LOX IMVI": 84.3, "G-361": 94.1, "LB2518-MEL": 90.8}
{"combination": "stibogluconate and FK866", "LOX IMVI": 57.8, "G-361": 9.4, "LB2518-MEL": 84.0}
{"combination": "vorinostat and NVP-TAE684", "LOX IMVI": 91.6, "G-361": 93.4, "LB2518-MEL": 105}
{"combination": "selumetinib and U73122", "LOX IMVI": 75.9, "G-361": 86.0, "LB2518-MEL": 57.7, "A101D": 79.7}
{"combination": "T0901317 and dasatinib", "LOX IMVI": 20.1, "G-361": 79.5, "LB2518-MEL": 92.9}
{"combination": "selumetinib and GW441756", "LOX IMVI": 131, "G-361": 95.1, "LB2518-MEL": 72.9, "A101D": 80.0}
{"combination": "GW9662 and YM155", "LOX IMVI": 61.4, "G-361": 105, "LB2518-MEL": 99.2}
{"combination": "T0901317 and lenalidomide", "LOX IMVI": 116, "G-361": 106, "LB2518-MEL": 83.6}
{"combination": "GW9662 and lenalidomide", "LOX IMVI": 84.6, "G-361": 88.9, "LB2518-MEL": 86.9}
{"combination": "dasatinib and FH535", "LOX IMVI": 37.2, "G-361": 83.0, "LB2518-MEL": 88.4}
{"combination": "selumetinib and GSK0660", "LOX IMVI": 113, "G-361": 100, "LB2518-MEL": 61.5, "A101D": 86.9}
{"combination": "YM155 and NVP-TAE684", "LOX IMVI": 84.0, "G-361": 94.5, "LB2518-MEL": 87.3}
{"combination": "TCS401 and selumetinib", "LOX IMVI": 154, "G-361": 92.3, "LB2518-MEL": 59.5, "A101D": 85.4}
{"combination": "YM155 and FH535", "LOX IMVI": 162, "G-361": 87.0, "LB2518-MEL": 93.7}
{"combination": "GW441756 and lenalidomide", "LOX IMVI": 93.1, "G-361": 98.7, "LB2518-MEL": 109}

From a melanoma drug combination screen (doi:10.1371/journal.pone.0140310); values rounded.